Assay results taken from article PMC9113592.
No constants are given. Whether binding was seen depends on the method and setting. Binding seen in cells or lysates may run through a third protein. Here binding means that the protein was enriched with, or labelled near, the bait; the list need not be complete.

By UniProt entry, the sequences of proteins in these tests, tags left out. Where a name states a change or a piece, a line headed by the entry shows the natural chain unless it says otherwise.
UniProt Q38BC5: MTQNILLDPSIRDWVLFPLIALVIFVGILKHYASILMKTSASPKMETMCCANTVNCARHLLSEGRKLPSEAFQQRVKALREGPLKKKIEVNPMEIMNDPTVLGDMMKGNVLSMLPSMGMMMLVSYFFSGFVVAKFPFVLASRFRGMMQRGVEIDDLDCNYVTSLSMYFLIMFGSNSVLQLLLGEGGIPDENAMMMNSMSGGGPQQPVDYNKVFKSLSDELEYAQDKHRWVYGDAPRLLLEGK
UniProt Q388W2: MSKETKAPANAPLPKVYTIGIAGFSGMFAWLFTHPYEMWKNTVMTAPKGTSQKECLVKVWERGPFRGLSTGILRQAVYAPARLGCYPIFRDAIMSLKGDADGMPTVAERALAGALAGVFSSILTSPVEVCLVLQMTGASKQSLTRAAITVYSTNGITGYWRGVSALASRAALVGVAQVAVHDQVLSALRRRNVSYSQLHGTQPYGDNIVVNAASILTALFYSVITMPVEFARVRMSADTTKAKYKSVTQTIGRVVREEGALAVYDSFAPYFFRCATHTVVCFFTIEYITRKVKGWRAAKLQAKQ
UniProt Q580G6: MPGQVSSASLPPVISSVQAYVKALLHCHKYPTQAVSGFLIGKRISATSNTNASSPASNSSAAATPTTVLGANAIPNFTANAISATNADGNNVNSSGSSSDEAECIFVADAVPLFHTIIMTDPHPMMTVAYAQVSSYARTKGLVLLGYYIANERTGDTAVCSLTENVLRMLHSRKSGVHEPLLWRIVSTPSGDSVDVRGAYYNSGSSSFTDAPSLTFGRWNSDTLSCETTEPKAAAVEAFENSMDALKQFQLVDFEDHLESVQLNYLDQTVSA
UniProt Q38EX8: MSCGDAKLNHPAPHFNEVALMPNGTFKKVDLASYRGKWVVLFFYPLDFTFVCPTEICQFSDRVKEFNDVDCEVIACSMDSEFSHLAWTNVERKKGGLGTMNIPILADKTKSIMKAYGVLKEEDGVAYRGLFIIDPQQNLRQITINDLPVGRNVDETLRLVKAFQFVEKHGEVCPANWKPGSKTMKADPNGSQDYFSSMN
UniProt Q382D5: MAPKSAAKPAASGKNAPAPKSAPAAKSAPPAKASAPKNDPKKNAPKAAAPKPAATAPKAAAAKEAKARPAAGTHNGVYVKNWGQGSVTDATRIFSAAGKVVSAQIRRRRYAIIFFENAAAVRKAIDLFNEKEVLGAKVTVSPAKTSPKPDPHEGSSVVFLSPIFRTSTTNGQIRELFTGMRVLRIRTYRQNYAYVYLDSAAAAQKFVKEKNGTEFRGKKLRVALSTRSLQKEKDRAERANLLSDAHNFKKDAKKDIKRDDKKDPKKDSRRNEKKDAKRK
UniProt Q57WZ3: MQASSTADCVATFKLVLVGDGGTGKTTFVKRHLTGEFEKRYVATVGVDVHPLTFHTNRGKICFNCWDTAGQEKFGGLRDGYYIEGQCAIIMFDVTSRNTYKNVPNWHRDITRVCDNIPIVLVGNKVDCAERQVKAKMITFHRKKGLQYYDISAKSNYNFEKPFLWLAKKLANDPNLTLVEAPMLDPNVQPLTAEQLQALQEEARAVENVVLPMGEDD

B1: glycosomal membrane protein GIM5B (protein, UniProt Q9N9C9 1-241)
chain: MSAQAHTYLCDAWNRDKVMAIVQFLPMALEGPARTAGCESLALSLGNLARMGDAYRAVTRLSLLANALSKPTLTSLSKPAGDMVASRIDQLSHLFHIGFCLNENTAVLAGHGVFPKSLHRLSGVAVLCWMYTLVLGIVRQLYMLSKMRGHCTAAAASGDDKRKTCPYGGCKRVMVDLLKLVCYFLFALTCLPEGKPQLLANASGPLVPLHVMVKALSPNPLHASNTVRGLLGLIASVCEFY

Biological target: TbEMC3-HA (Trypanosoma brucei) (UniProt Q38BC5)
Assay: affinity purification with mass spectrometry; parasites cross-linked in 0.1% paraformaldehyde in PBS for 8 min at room temperature, glycine 125 mM; lysed and immunoprecipitated as for the co-IP, beads washed with lysis buffer lacking detergent; MS of the TbEMC3-HA and TbEMC5-cMyc immunoprecipitates

binding, binds:
mitochondrial carrier protein MCP12 (from UniProt Q388W2), putative histone H2B (from UniProt Q389T1), TbEMC8 (from UniProt Q580G6), tryparedoxin peroxidase (from UniProt Q38EX8) (enzyme), nuclear RNA binding domain 2 (from UniProt Q382D5), putative GTP binding nuclear protein RTB2 (from UniProt Q57WZ3)

Biological target: TbEMC5-cMyc (Trypanosoma brucei)
Assay: as above

binding, binds:
B1
